This is one part of the list.

Sequences of proteins named here, by UniProt entry; tags and fusion partners are left off.
UniProt Q0JBA9, entry or part of it: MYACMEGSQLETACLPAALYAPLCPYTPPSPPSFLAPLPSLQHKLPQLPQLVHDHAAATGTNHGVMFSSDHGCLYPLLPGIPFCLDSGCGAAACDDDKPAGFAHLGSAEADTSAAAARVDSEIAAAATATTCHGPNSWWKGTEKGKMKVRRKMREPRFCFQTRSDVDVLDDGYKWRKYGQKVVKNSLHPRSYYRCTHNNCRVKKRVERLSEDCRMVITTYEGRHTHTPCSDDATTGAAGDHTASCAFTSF

The values below come from publication PMC7819943, “Rice protein-binding microarrays: a tool to detect cis-acting elements near promoter regions in rice”.

In this assay the target is OsWRKY34 (Oryza sativa, UniProt Q0JBA9 1-250). Description: protein-binding microarray (RPBM); PBS, 2% BSA, 51.3 ng/ul salmon testes DNA, 50 uM zinc acetate, 200 nM TF, 25 C, 1 h; high values mean tight binding. To be noted: protein: recombinant; tags: N-terminal polyhistidine and DsRed monomer fusion (pET32a); label: CyDye5-dUTP incorporated in the synthesized complementary strand; 3' TTTTT single-stranded linker to array surface; dsDNA, one strand shown. In outline: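 The binding signal is fluorescence intensity per feature, in arbitrary units, read on an Axon 4000B scanner. Polyhistidine- and DsRed-tagged transcription factors (N-terminal fusions) from E. coli BL21-CodonPlus were purified on Ni–NTA and applied at 200 nM for 1 h at 25 °C to a double-stranded, BSA-blocked custom Agilent array in buffer with 50 µM zinc acetate.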
In the case of “CCGTTAGTGAACATGTAAATATTTTTCACTCTACTTAATACGGAGTCACCTAGTGCAG”, the binding signal was 8960 fluorescence intensity (a.u.).

For “TTGTAGGGGCGTTCTTGTCAATCTTTTGTCCCCAACTTTCCGGAGTCACCTAGTGCAG”, the binding signal is 8900 fluorescence intensity (a.u.).

On to “CATGGTGACATGTTGTGGGGCTGTGTCTTGTGGGTACAGTCGGAGTCACCTAGTGCAG”, for which the binding signal was 8650 fluorescence intensity (a.u.).

Take “TCCCGGCCCCACCATACCGTTGCCGGCCTCCTCGTCCTCTCGGAGTCACCTAGTGCAG”: the binding signal is 9780 fluorescence intensity (a.u.).

Turning to “GTTGCTATGTTTTTTTATAAATTTGGTCAAACTTTTTAGACGGAGTCACCTAGTGCAG”, the binding signal is 8060 fluorescence intensity (a.u.).

Take “TATTATTGAAGGTATTTAGGGGTAGTGGGTCTTTAGTCACCGGAGTCACCTAGTGCAG”: the binding signal is 8900 fluorescence intensity (a.u.).

“CTCCGCCCACACTCCGTCGCGCATCGCCCTGCCGCCGACGCGGAGTCACCTAGTGCAG”: the binding signal was 9680 fluorescence intensity (a.u.).

As for “GAGATTGGTTCGAGTTTGCAATATCACGCTGTTACCTCACCGGAGTCACCTAGTGCAG”, the binding signal is 8630 fluorescence intensity (a.u.).

Take “ATGTCATCCAATCATACACTGTACGCGCACACACACATGACGGAGTCACCTAGTGCAG”: the binding signal was 8920 fluorescence intensity (a.u.).

For the sequence “ACTTCTTCTCATTCTTATGGATCAATATTTTCGCTTTATGCGGAGTCACCTAGTGCAG”, the binding signal was 8690 fluorescence intensity (a.u.).

For the sequence “CATGTTAGGGCGGGGAGATCACACGTGATGCATATAGACGCGGAGTCACCTAGTGCAG”, the binding signal was 13000 fluorescence intensity (a.u.).

Turning to “GCGTTAACTACTTTAATTGTGACATTTATCCCTATTTATACGGAGTCACCTAGTGCAG”, the binding signal is 9530 fluorescence intensity (a.u.).

Regarding “AAGTTGTACCGTTATCTCGCATATTATCTACGTGGACACTCGGAGTCACCTAGTGCAG”, the binding signal was 8180 fluorescence intensity (a.u.).

As to “CCGGTTTTCTCCGCAGTTTCTTGATCCATCCGCCTTTCCTCGGAGTCACCTAGTGCAG”, the binding signal is 8760 fluorescence intensity (a.u.).

Regarding “TATAGCCAAGCTGCTATAAGTCATTTTGACTTTTTTTAGTCGGAGTCACCTAGTGCAG”, the binding signal was 9220 fluorescence intensity (a.u.).

For the sequence “CGGCGTCGTCACTGTTCCGGCTCGTCGCCGCGCGCGCGCGCGGAGTCACCTAGTGCAG”, the binding signal is 10100 fluorescence intensity (a.u.).

As to “ATCGGGTCGGTTTGCCTTTTTTGAATTTCTGAGTATTTTGCGGAGTCACCTAGTGCAG”, the binding signal is 9060 fluorescence intensity (a.u.).

For the sequence “CTTCGCCTCCGGCGCCGCCGGTGGCTGCTCCGCCGCGTCGCGGAGTCACCTAGTGCAG”, the binding signal was 8790 fluorescence intensity (a.u.).

Consider “TCTCACTGATTAACTAACCTTTATTCTCAAGTTTTTCTCTCGGAGTCACCTAGTGCAG”, for which the binding signal is 8810 fluorescence intensity (a.u.).

As for “TCCCACATTGGTTCCATGCATGCTATTATCATTTCCATTACGGAGTCACCTAGTGCAG”, the binding signal is 9450 fluorescence intensity (a.u.).

For the sequence “TAATTTTTAGTTTCTTGCCCTTAATTTGTATATAATATTTCGGAGTCACCTAGTGCAG”, the binding signal was 8650 fluorescence intensity (a.u.).

For “GTAGCTTGTCCTCTTCGCCGAGGCCGAGGTGACGCACATGCGGAGTCACCTAGTGCAG”, the binding signal is 9000 fluorescence intensity (a.u.).

Take “GCTTAGCGTTGACTTCGATGGGTGCATCGCGTTCGATCGCCGGAGTCACCTAGTGCAG”: the binding signal was 11200 fluorescence intensity (a.u.).

Turning to “TCATCCCACCGACGTCAGCAAGCCATCGCCATCAAGCCCACGGAGTCACCTAGTGCAG”, the binding signal is 9760 fluorescence intensity (a.u.).

Consider “CCCGTGTCTTCCCAACCACGTTGACCACGACTTTTTCGTTCGGAGTCACCTAGTGCAG”, for which the binding signal is 9480 fluorescence intensity (a.u.).

Take “CTCTCCTGTTGCTGATGCTCTTGTTTGCCGTAGGTGACACCGGAGTCACCTAGTGCAG”: the binding signal was 11900 fluorescence intensity (a.u.).

Turning to “TACTTGCTTAAAGTTTACTTTCTGTTGCTTTTCCAGTTTACGGAGTCACCTAGTGCAG”, the binding signal was 8850 fluorescence intensity (a.u.).

For the sequence “GCGGGCGGGCGGGCTCACCGGTCGTTGACGAGGAGTTTGGCGGAGTCACCTAGTGCAG”, the binding signal was 14900 fluorescence intensity (a.u.).

Consider “GCATGCAAGTTCATGTGCCGCCCACTCATCATCGTCTTTTCGGAGTCACCTAGTGCAG”, for which the binding signal is 8280 fluorescence intensity (a.u.).

Turning to “TTTAAGCTTTTTTCTGTTCACTTTTGGATATTTTGGTTGTCGGAGTCACCTAGTGCAG”, the binding signal was 11900 fluorescence intensity (a.u.).

As to “CTCTTCGTCCCGGGTCATGTGTGTGTGAATTGCTCGTGTTCGGAGTCACCTAGTGCAG”, the binding signal is 10700 fluorescence intensity (a.u.).

“GCCAAAAAGTTAGGCTTTCTTTCCATTCATTCATTCATTCCGGAGTCACCTAGTGCAG”: the binding signal was 8170 fluorescence intensity (a.u.).

As to “TATTCCTCCAGGCTTCCAGCGTGACCTCGAGTCATCAGTTCGGAGTCACCTAGTGCAG”, the binding signal is 8080 fluorescence intensity (a.u.).

Turning to “TCTCTAATCCATTGCCTCGTTTTTCTCTATAGACTATCTACGGAGTCACCTAGTGCAG”, the binding signal is 8130 fluorescence intensity (a.u.).

With “CTTCTTCTTCTACCTCGCGTCGACTCCTCCTCCTCCCGCTCGGAGTCACCTAGTGCAG”, the binding signal was 8460 fluorescence intensity (a.u.).

For “CTTTTCTTTTTCATCATACGGCCTATAGAGCACAGTGCCACGGAGTCACCTAGTGCAG”, the binding signal is 8990 fluorescence intensity (a.u.).

On to “ATAGCACGTCATTTTTTTGTTTTTTTTTTACTGCTGCCTCCGGAGTCACCTAGTGCAG”, for which the binding signal was 8880 fluorescence intensity (a.u.).

Regarding “CGGGCGGCGATCTCCATCGCAGCGGAGGGGAGGGGATCCTCGGAGTCACCTAGTGCAG”, the binding signal was 8820 fluorescence intensity (a.u.).

For “TCCATCCATCTTGCTTGCCACACACCCAACACTCCACACACGGAGTCACCTAGTGCAG”, the binding signal is 9370 fluorescence intensity (a.u.).

In the case of “TATATCTATATGCCATATCATCTGTCTATCCTTTGTAAAGCGGAGTCACCTAGTGCAG”, the binding signal is 8740 fluorescence intensity (a.u.).

Turning to “GATGTGGGAAGATTTAGGTGTATTTCTATTTCAGGGGTCTCGGAGTCACCTAGTGCAG”, the binding signal was 10400 fluorescence intensity (a.u.).

As for “ATATTTCAGACTTTCAGTAGCTTGCAATGTATGCTCACATCGGAGTCACCTAGTGCAG”, the binding signal was 8070 fluorescence intensity (a.u.).
